Results are given in words; binding and its absence hold for the method and conditions named.
What was measured:
human RANK (human) [1] = assay: condition: about log 3.9 on the axis LoG Con.(ng/mL), about 8000 ng/mL; ELISA on coated recombinant TNFRSF proteins, serially diluted antibody (Example 17)
human RANK (human) [2] = assay: ELISA, coated recombinant protein

B1: 13A2-VH3VL3 (antibody, human IgG2, kappa, V domains shown)
VH: QVQLQESGPGLVKPSDTLSLTCAVSGYSITTNYYWNWIRQPPGNKLEWMGYINYDGSNNYNPSLKNRITISVDTSKNQFSLKLSSVTAVDTAVYYCARLDYWGQGTLVTVSS
VL: DVVLTQSPLSLPVTLGQPASISCRSSQSLENSNGNTFLNWFQQRPGQSPRLLIYKVSNRFSGVPDRFSGSGSGTDFTLKISRVEAEDVGVYFCLQVTHVPFTFGSGTKLEIKR
binding (human RANK (human) [1]): no binding
binding (human RANK (human) [2]): no binding

— patent US10654939
